Assay: Electrochemical corrosion study (Gamry electrochemical corrosion measurement technique)
Details: for Corrosion Rate after 48 hrs (mpy): inhibitor about 25 ppm, unpassivated mild steel coupon, about 120° F. (50° C.), pH about 8.0, 500 rpm
Description: The electrochemical corrosion study was carried out using the Gamry electrochemical corrosion measurement technique. The purpose of the corrosion measurement was to evaluate the performance of the synthesized corrosion inhibitor compositions against Carbon Steel Metallurgy corrosion inhibition.
Experimental conditions used during the corrosion inhibition experiment were: • a) Corrosion rate KPI<3 mpy for Carbon Steel Metallurgy; • b) Gamry Electrochemical Instrument and Pine Rotator; • c) 800 mL test solution into a 1 L glass cell; • d) Dosage of Inhibitor: about 25 ppm; • e) Mild Steel cylindrical coupon polished using 600 SiC polishing paper; • f) No pre-passivation: unpassivated coupons were used directly after polishing; • g) Temperature: about 120° F. (50° C.); • h) pH=about 8.0; and • i) RPM of Pine Rotator: 500 rpm.

SMILES | corrosion rate (carbon steel corrosion inhibition), stated in text for FIG. 1 / FIG. 2 (conditions as outlined (about 25 ppm, unpassivated mild steel coupon, 50° C., pH about 8.0)) | corrosion rate under high hardness and high chloride water chemistry conditions (high hardness and high chloride water chemistry, FIG. 3) | appearance of the water chemistry (cloudiness / white precipitate) after heating (high hardness and high chloride water chemistry, after heating for 48 hours) | Corrosion Rate after 48 hrs (mpy)
CCCCCC1=NCCN1CCNCCC(=O)O [No. 5, 3-((2-(2-pentyl-4,5-dihydro-1H-imidazol-1-yl)ethyl)amino)propanoic acid] | < 5 mpy | < 1 mpy | does not become cloudy or result in any white precipitate | 4.01 mpy
CCCCCCCC1=NCCN1CCNCCC(=O)O [No. 6, 3-((2-(2-heptyl-4,5-dihydro-1H-imidazol-1-yl)ethyl)amino)propanoic acid] |  |  |  | 8.82 mpy
CCCCCCCCCCCC1=NCCN1CCNCCC(=O)O [No. 7, 3-((2-(2-undecyl-4,5-dihydro-1H-imidazol-1-yl)ethyl)amino)propanoic acid] |  |  |  | 5.62 mpy
